From PubChem BioAssay record AID1508623 (NCATS, 2021).

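Change in HTT-promoter-driven luminescence in engineered HEK293 reporter cells after a 24 h treatment, measured at one concentration. Percent change in reporter signal versus vehicle (0%) down to no light (-100%); more negative values mean stronger inhibition of promoter activity.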

Values are in %. Common to all entries: at 57.5 µM (top of the series). Only part of the assay is listed here, not a random draw.

| # | compound | activity change (%) |
|---|---|---|
| 1 | `CC(C)c1ccc2oc(-c3ccc(Cl)c(NC(=O)Cc4ccccc4)c3)nc2c1` | -78.86 |
| 2 | `CCOC(=O)C1CCN(C(=O)Cn2nc(C)n3c(cc4cc(F)ccc43)c2=O)CC1` | -20.06 |
| 3 | `CCCNC(=O)c1cnc2sc(N3CCCCC3)nn2c1=O` | -4.178 |
| 4 | `COC(=O)c1cccc(NC(=O)C2CCN(S(=O)(=O)Cc3ccccc3)CC2)c1C` | -11.24 |
| 5 | `COC(=O)c1cc2oc3ccccc3c2n1CC(=O)Nc1ccc(N(C)C)cc1` | 28.41 |
| 6 | `COC(=O)c1ccc(NC(=O)CC2C(=O)N(c3ccc(Cl)cc3)C(=O)N2Cc2cccs2)cc1` (stereo unspecified) | -34.82 |
| 7 | `Cc1ccc(Cl)cc1NS(=O)(=O)c1ccc2oc(=O)c3ncn(C)c3c2c1` | -7.097 |
| 8 | `COc1cc2c(cc1OC)C(c1ccc(F)cc1)N(c1ccc(F)cc1)C(=O)C2` (stereo unspecified) | -17.28 |
| 9 | `COc1ccc(CNC(=O)c2cnc3sc(N4CCC(C)CC4)nn3c2=O)c(OC)c1` | -1.987 |
| 10 | `COC(=O)c1cc2oc3ccccc3c2n1Cc1nc(-c2cccc(C)c2)oc1C` | 8.385 |
| 11 | `CCCS(=O)(=O)N1CCC(N2CCN(Cc3ccc(C)cc3)C(=O)C2=O)CC1` | -8.228 |
| 12 | `COc1cccc(CNC(=O)C2CCCCN2S(=O)(=O)c2ccc(F)cc2)c1` (stereo unspecified) | -23.97 |
| 13 | `Cc1ccccc1Nc1nnc(-c2ccc(C)c(S(=O)(=O)N3CCCCC3)c2)c2ccccc12` | -53.31 |
| 14 | `CCOC(=O)c1c(NC(=O)c2cc(-c3ccc(OC)cc3)on2)sc(C)c1C` | -5.621 |
| 15 | `COc1ccc(NC(=O)CCn2nc(-c3ccc(Cl)cc3)c3ccccc3c2=O)cc1` | -25.43 |
| 16 | `CCOC(=O)COc1ccccc1C1C(C(=O)OC)=C(C)NC2=C1C(=O)c1ccccc12` (stereo unspecified) | -16.51 |
| 17 | `COc1ccc2c(c1)cc1c(=O)n(CC(=O)NC3CC3)nc(C)n12` | -8.643 |
| 18 | `CCc1ccc(S(=O)(=O)Nc2cccc(-c3ccc(N4CCC(C)CC4)nn3)c2)s1` | 12.18 |
| 19 | `CC1CCN(Cc2c(O)ccc3c(=O)c(-c4ccc(Cl)cc4)c(C(F)(F)F)oc23)CC1` | -4.949 |
| 20 | `CCOC(=O)CN1C(=O)C(O)(CC(=O)c2cc(OC)ccc2OC)c2ccccc21` (stereo unspecified) | -21.6 |
| 21 | `Cc1ccc(S(=O)(=O)Nc2cccc(-c3ccc(N4CCC(C)CC4)nn3)c2)s1` | 24.06 |
| 22 | `CCOC(=O)c1ccc(N2CCN(c3cccc(Cl)c3)CC2)c(NC(=O)Nc2ccc(OC)cc2OC)c1` | -3.938 |
| 23 | `COc1cccc(-c2cc(C(=O)NCCc3ccc(OC)c(OC)c3)no2)c1` | -11.83 |
| 24 | `COc1cc(C)c(C)cc1S(=O)(=O)Nc1cccc(-c2ccc(N3CCOCC3)nn2)c1` | 2.59 |
| 25 | `COc1cc(-c2nnc(SCC(=O)Nc3cccc(C#N)c3)o2)cc(OC)c1OC` | -7.033 |
| 26 | `Cc1c(C)c2cc3c(c(C)c2oc1=O)OCN(CCc1ccc(F)cc1)C3` | -20.74 |
| 27 | `O=S(=O)(Nc1cccc(-c2ccc(N3CCCCCC3)nn2)c1)c1ccccc1` | 19.93 |
| 28 | `CCOC(=O)c1ccc(NS(=O)(=O)c2ccc(-c3cc(C)no3)cc2)cc1` | -47.15 |
| 29 | `Cc1ccc(OCCSc2nc(-c3cccs3)nc3cc(=O)[nH]n23)cc1Cl` | -5.266 |
| 30 | `CCCCc1ccc(NC(=O)Cn2cnc3c2c(=O)n(C)c(=O)n3C)cc1` | -25.16 |
| 31 | `O=C(CSc1nc(-c2ccco2)nc2cc(=O)[nH]n12)Nc1ccccc1F` | -9.531 |
| 32 | `CCCOC(=O)c1cccc(Nc2nc(CCC)cc(=O)[nH]2)c1` | -87.58 |
| 33 | `O=C(NCCSCc1c(F)cccc1Cl)C1CCN(S(=O)(=O)Cc2ccccc2)CC1` | -22.22 |
| 34 | `COc1ccc(-c2cc(C(=O)Nc3ccn(Cc4ccc(C)cc4)n3)no2)cc1OC` | -22.12 |
| 35 | `COc1ccc2c(C)c(CCC(=O)NCc3cccc(Cl)c3)c(=O)oc2c1` | -24.78 |
| 36 | `CC1CCN(C(=O)c2cc(-c3cccc(Cl)c3)on2)CC1` | 25.16 |
| 37 | `Cc1cccc(OCC(=O)Nc2cccc(-c3nc4ccccc4s3)c2)c1` | 40.77 |
| 38 | `COCCCNC(=O)c1ccc(-c2nc(CS(=O)(=O)c3ccc(C)cc3)c(C)o2)cc1` | -37.11 |
| 39 | `CCOC(=O)c1sc(NC(=O)c2cc(CC)on2)c(C(=O)OCC)c1C` | -6.938 |
| 40 | `CCOc1ccc(S(=O)(=O)Nc2cccc(-c3ccc(N4CCCC4)nn3)c2)cc1` | -0.5079 |
| 41 | `CCCCNC(=O)c1cc(-c2ccc(Cl)c(Cl)c2)on1` | 5.98 |
| 42 | `Cc1ccc(CCNC(=O)c2cc3ccccn3n2)cc1` | 2.687 |
| 43 | `COc1ccc(CN2COc3ccc4c(oc(=O)c5ccccc54)c3C2)cc1OC` | -9.057 |
| 44 | `Cc1nn(-c2ccc(N3CCCCC3)nn2)c(C)c1CCC(=O)NCc1ccc(OC(C)C)cc1` | -63.19 |
| 45 | `COc1ccc2c(c1)cc1c(=O)n(CC(=O)NCc3ccco3)nc(C)n12` | -17.78 |
| 46 | `N#Cc1ccccc1OCC(=O)N1CCN(c2ccccc2F)CC1` | -11.06 |
| 47 | `CCN1CCN(Cc2c(O)ccc3oc(C)c(C(=O)Nc4ccc(C)cc4C)c23)CC1` | -11.06 |
| 48 | `COc1cccc(NC(=O)CCN2CCN(CCO)CC2)c1` | -13.97 |
| 49 | `O=C(CSc1nc(-c2cccc(Cl)c2)nc2cc(=O)[nH]n12)Nc1ccccc1` | -27.62 |

Once more, the final 6:

| compound | activity change (%) |
|---|---|
| `Cc1nn(-c2ccc(N3CCCCC3)nn2)c(C)c1CCC(=O)NCc1ccc(OC(C)C)cc1` | -63.19 |
| `COc1ccc2c(c1)cc1c(=O)n(CC(=O)NCc3ccco3)nc(C)n12` | -17.78 |
| `N#Cc1ccccc1OCC(=O)N1CCN(c2ccccc2F)CC1` | -11.06 |
| `CCN1CCN(Cc2c(O)ccc3oc(C)c(C(=O)Nc4ccc(C)cc4C)c23)CC1` | -11.06 |
| `COc1cccc(NC(=O)CCN2CCN(CCO)CC2)c1` | -13.97 |
| `O=C(CSc1nc(-c2cccc(Cl)c2)nc2cc(=O)[nH]n12)Nc1ccccc1` | -27.62 |